In publication PMC12687436:
Results are given in words; binding and its absence hold for the method and conditions named. In cells and extracts the contact can be indirect. Some binding calls cover weakened binding; strength is not graded here. Sequences can lack the tags named with a protein.

Chains of the proteins cited; added tags and fusions are not shown.
UniProt P09493: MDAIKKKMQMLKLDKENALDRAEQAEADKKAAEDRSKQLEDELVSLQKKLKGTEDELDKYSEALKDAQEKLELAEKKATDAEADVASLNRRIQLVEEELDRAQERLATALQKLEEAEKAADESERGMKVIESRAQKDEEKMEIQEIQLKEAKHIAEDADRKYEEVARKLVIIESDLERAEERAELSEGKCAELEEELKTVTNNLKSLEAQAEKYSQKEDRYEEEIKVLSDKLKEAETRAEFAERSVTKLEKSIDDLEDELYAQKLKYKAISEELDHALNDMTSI

Target: T1, Tetraspanin 4 (TSPAN4), HA-tagged, overexpressed in VSMCs (UniProt O14817)
T1 sequence: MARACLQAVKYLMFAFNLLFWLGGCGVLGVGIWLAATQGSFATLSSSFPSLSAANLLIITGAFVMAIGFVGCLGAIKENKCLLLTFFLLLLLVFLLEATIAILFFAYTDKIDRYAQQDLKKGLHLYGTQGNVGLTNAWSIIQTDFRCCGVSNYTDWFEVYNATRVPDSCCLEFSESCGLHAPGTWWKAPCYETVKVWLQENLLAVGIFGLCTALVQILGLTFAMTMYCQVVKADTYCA
Test: co-IP; HA-tag immunoprecipitation of TSPAN4 from lysates of VSMCs overexpressing TSPAN4, IgG as control; detection by western blot

With “Tropomyosin-1 (TPM1) (from UniProt P09493 1-284)” the binding was “binds”.
